Assay results taken from paper doi:10.1101/2021.06.29.450327.
These are yes or no findings as the source states them, for the method shown. In cells and extracts the contact can be indirect. Some results given as binding are weak or reduced against the parent protein; the word gives no strength.

Protein sequences, listed by entry. Tags and fused reporters are not part of them. Residues count along the entry.
UniProt Q9Y4K0, residues 26-774: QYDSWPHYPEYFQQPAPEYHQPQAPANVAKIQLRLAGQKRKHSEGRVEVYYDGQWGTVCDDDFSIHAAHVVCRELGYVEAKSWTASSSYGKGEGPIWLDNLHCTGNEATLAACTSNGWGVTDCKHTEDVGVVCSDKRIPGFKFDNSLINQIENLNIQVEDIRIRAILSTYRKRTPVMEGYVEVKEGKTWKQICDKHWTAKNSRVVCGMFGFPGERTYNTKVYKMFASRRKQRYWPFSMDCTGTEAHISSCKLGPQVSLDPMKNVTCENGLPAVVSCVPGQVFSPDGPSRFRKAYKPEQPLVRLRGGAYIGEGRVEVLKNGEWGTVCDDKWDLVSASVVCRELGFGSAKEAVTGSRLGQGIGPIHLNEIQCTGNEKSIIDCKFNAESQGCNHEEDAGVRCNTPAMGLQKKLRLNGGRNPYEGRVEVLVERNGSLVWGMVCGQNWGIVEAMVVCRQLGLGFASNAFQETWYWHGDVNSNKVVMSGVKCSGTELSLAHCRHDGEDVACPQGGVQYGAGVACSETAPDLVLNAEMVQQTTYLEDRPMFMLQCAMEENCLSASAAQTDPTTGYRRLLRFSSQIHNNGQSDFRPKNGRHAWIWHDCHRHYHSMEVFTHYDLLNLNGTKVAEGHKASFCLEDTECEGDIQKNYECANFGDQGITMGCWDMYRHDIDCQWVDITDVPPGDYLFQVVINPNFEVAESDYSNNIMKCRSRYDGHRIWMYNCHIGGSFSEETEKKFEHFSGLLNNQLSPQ
UniProt P58022, residues 26-776: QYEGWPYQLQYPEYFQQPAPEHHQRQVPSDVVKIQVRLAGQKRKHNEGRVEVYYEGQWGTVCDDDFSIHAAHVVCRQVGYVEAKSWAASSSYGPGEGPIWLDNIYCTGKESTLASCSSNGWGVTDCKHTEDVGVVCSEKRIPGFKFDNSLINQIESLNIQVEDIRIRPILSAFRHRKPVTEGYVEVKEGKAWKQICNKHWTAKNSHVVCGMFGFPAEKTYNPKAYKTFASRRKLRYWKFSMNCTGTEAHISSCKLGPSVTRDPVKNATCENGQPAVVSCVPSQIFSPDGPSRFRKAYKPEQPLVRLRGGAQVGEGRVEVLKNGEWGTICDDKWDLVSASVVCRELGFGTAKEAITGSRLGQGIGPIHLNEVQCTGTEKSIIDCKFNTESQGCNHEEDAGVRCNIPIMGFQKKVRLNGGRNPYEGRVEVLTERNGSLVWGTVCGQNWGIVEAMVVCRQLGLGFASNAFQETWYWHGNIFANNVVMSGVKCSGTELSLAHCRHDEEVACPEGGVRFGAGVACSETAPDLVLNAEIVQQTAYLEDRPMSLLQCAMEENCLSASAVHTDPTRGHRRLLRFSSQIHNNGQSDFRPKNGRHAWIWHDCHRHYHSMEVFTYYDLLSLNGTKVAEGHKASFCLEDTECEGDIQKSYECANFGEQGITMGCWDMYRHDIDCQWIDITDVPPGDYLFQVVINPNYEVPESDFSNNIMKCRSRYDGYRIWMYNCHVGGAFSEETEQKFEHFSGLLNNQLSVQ

Assays:
[1] = target: T1, endogenous Meflin (human fibroblasts) (human (endogenous in fHDF/TERT166 and NHDF fibroblasts)) (UniProt O14498); assay: co-IP
T1 sequence: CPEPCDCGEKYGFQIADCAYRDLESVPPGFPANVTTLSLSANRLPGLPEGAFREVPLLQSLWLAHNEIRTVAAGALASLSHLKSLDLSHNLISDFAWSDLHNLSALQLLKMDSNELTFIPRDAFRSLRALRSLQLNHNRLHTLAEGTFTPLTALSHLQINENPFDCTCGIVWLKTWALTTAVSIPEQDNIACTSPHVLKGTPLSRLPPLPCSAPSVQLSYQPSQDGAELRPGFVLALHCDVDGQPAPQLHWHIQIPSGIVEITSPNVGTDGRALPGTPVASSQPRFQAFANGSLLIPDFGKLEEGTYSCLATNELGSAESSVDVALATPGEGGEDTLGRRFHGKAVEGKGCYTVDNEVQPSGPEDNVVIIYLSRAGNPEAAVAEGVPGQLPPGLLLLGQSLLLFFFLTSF

[2] = target: Meflin (IP assay with Loxl2, Supplementary Fig. 6d) (UniProt Q6GU68); assay: co-IP

Substance | binding [1] | binding [2]
endogenous Loxl2 (from UniProt Q9Y4K0 26-774) (enzyme) | binds | –
lysyl oxidase like 2 (Loxl2) (from UniProt P58022 26-776) (enzyme) | – | binds
